Measured values published in PubChem BioAssay AID504444 (National Center for Advancing Translational Sciences (NCATS), 2011).
The whole screen tested about 360,000 compounds, of which about 7,500 (2.1%) were called active. The inconclusive results got no clear call from the source; some entries with a clear call stand among them for comparison. Calls follow the shape of the dose curve; as a rule, active = well fitted inhibition curve with a large enough effect; inconclusive = small, poorly fitted or top-dose-only effect, or effect the other way; inactive = flat fitted curve, though single readings scatter. A potency beside an inconclusive call is a rough fit, not a confirmed value.

Test: Nrf2 qHTS screen for inhibitors; also: nearly all actives have a fitted effect of over 60% in size
Settings: A549 ARE-Fluc reporter, luciferase luminescence, 18-24 h; series mostly up to 46 µM
In short: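 Quantitative HTS in A549 cells stably bearing an antioxidant response element-firefly luciferase construct. Inhibition of Nrf2-driven transcription was scored by luminescence after 18-24 h of compound exposure at 37 °C.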
Potency is read from the fitted curve at half-maximal effect.

Row | SMILES | Potency
1 | CCOC(=O)c1c(C)[nH]c(C(=O)COC(=O)c2ccc([N+](=O)[O-])o2)c1C | inconclusive: 18.4 µM [falling, partial curve, poor fit]
2 | O=C(NNC(=O)C1CCN(C(=O)Nc2ccccc2)CC1)c1ccc([N+](=O)[O-])cc1 | inconclusive: 5.8 µM [falling, full curve, poor fit]
3 | CCc1cccc(NC(=O)c2cnn(-c3ccccc3)c2C)c1 | inconclusive: 1.64 µM [activator, full curve]
4 | CCCN(CC(=O)Nc1cc(Cl)cc(Cl)c1)CC(=O)Nc1ccc(F)c(F)c1F | inconclusive: 29.1 µM [falling, single point]
5 | Cn1cccc1/C=N/NC(=O)c1ccco1 | inconclusive: 29.1 µM [activator, single point]
6 | COc1ccccc1N1CCN(C(=O)/C=C/c2c(Cl)nc3ccccn23)CC1 | inconclusive: 29.1 µM [falling, single point]
7 | Cc1ccc(-c2noc(-c3c(C)noc3C)n2)cc1 | inconclusive: 16.4 µM [activator, partial curve, poor fit]
8 | Cn1c(=O)c(C(=O)Nc2ncccn2)c(O)c2ccccc21 | inconclusive: 1.64 µM [activator, full curve]
9 | O=C(Nc1ccccc1)Nc1ccc(Nc2ccccc2)cc1 | inactive
10 | COC(=O)c1ccccc1NC(=O)c1ccccc1OC | inactive
11 | COCCCNc1nc2nonc2nc1N(C)CC1CCCN1C (centres undefined) | inconclusive: 32.6 µM [falling, single point]
12 | Cc1cc(C(=O)Nc2ccc3c(c2)CCC3)ccc1[N+](=O)[O-] | inconclusive: 20.6 µM [activator, partial curve]
13 | CN(C(=O)c1ccc(-c2ccccc2)cc1)C1CCCCC1 | inconclusive: 5.8 µM [activator, full curve, poor fit]
14 | Cc1occc1C(=O)NNC(=S)NC(=O)COc1ccc(Cl)cc1Cl | inconclusive: 29.1 µM [activator, single point]
15 | CC(C)(C)n1nnnc1C(c1cccs1)N1CCN(c2ccccc2)CC1 (centres undefined) | active: 23.1 µM
16 | Clc1ccc(-c2cn3ncsc3n2)cc1 | inconclusive: 2.06 µM [activator, full curve]
17 | Cc1ccc(Cl)cc1N1CCN(S(=O)(=O)c2c(C)noc2C)CC1 | inactive
18 | FC(F)(F)c1ccc(C2Nc3cccc4cccc(c34)N2)cc1 | inactive
19 | Cc1cccc2sc(N(CCN3CCOCC3)C(=O)CCS(=O)(=O)c3ccccc3)nc12 | inconclusive: 20.6 µM [activator, partial curve, poor fit]

Looked up above:
Entry for Cc1occc1C(=O)NNC(=S)NC(=O)COc1ccc(Cl)cc1Cl under Potency: inconclusive: 29.1 µM [activator, single point]
Entry for O=C(NNC(=O)C1CCN(C(=O)Nc2ccccc2)CC1)c1ccc([N+](=O)[O-])cc1 under Potency: inconclusive: 5.8 µM [falling, full curve, poor fit]
